{"source": "PubChem BioAssay AID493014", "about": "(National Center for Advancing Translational Sciences (NCATS), 2011)", "test": "qHTS Assay to Find Inhibitors of Chronic Active B-Cell Receptor Signaling", "conditions": "ABC-DLBCL IkBa-CBG/CBR reporter, luminescence ratio (green luciferase fused to IkBa over red control in TMD8 lymphoma cells), 4 h", "procedure,_shortened": "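Cell line TMD8 (human ABC DLBCL), stably expressing tet-inducible CBG68-IkBa fusion and CBR; IMDM/0.5% FBS; cpd up to 46 uM; dox induction, 4 h, 37C/5% CO2; dual luminescence; green/red ratio; MG132 control.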", "key": {"[1]": {"conditions": "measured here: CBR red luminescence, cell number"}, "[2]": {"conditions": "measured here: IkBa-CBG green luminescence"}}, "note": "Some of the results follow. Shown are side measurements of this screen, not its main read-out; they come without a call. The list favours compounds with an active or inconclusive main result. The note in brackets gives the kind of curve behind each potency; many fits are weak.", "data": [{"molecule": "Cc1cc(C)c(NC(=O)CSc2nc3ccccc3c3nc(CCn4cncc4C)nn23)c(C)c1", "values": [{"measurement": "AC50", "setting": "[1]", "result": "35.5 µM [rising, single point]"}]}, {"molecule": "CCS(=O)(=O)c1ccc2c(c1)N(S(=O)(=O)c1ccccc1)CC(C(=O)O)O2", "note": "(configuration not stated)", "values": [{"measurement": "AC50", "setting": "[1]", "result": "3.98 µM [falling, single point]"}]}, {"molecule": "COc1ccccc1Nc1nc(C)cc(C)n1", "values": [{"measurement": "AC50", "setting": "[1]", "result": "12.6 µM [rising, partial curve, poor fit]"}]}, {"molecule": "CC(/C=C/c1ccco1)=N/NC(=O)c1ccccc1Cl", "values": [{"measurement": "AC50", "setting": "[1]", "result": "12.6 µM [falling, partial curve, poor fit]"}]}, {"molecule": "CCOc1ccc(CN(C(=O)c2ccccn2)c2ccc(OC)c(Cl)c2)cc1", "values": [{"measurement": "AC50", "setting": "[1]", "result": "0.316 µM [rising, full curve, poor fit]"}]}, {"molecule": "O=C(N/N=C\\c1ccc(-c2ccccc2[N+](=O)[O-])o1)C1COc2ccccc2O1", "note": "(configuration not stated)", "values": [{"measurement": "AC50", "setting": "[1]", "result": "25.9 µM [falling, single point]"}]}, {"molecule": "CCC(=O)Nc1nnc(S(=O)(=O)N(CC)c2ccc(OC)cc2)s1", "values": [{"measurement": "AC50", "setting": "[1]", "result": "35.5 µM [rising, single point]"}]}, {"molecule": "O=C(Nc1cccc2ccccc12)NC1CCCc2ccccc21", "note": "(configuration not stated)", "values": [{"measurement": "AC50", "setting": "[1]", "result": "29.1 µM [rising, single point]"}]}, {"molecule": "CSc1ccccc1NC(=O)CN(C)C(=O)CCc1c[nH]c2ccccc12", "values": [{"measurement": "AC50", "setting": "[1]", "result": "7.08 µM [falling, partial curve, poor fit]"}]}, {"molecule": "COC(=O)C1=C(C)NC(C)=C(C(=O)OC)C1C(=O)OCC(=O)c1ccc(F)cc1", "values": [{"measurement": "AC50", "setting": "[1]", "result": "2.24 µM [rising, partial curve, poor fit]"}]}, {"molecule": "O=C(NC1CCCCC1)c1cc([N+](=O)[O-])[nH]n1", "values": [{"measurement": "AC50", "setting": "[1]", "result": "14.6 µM [falling, partial curve]"}]}, {"molecule": "CCC(C)NC(=O)c1ccccc1NC(=O)c1ccc(CSc2ccccc2)cc1", "note": "(configuration not stated)", "values": [{"measurement": "AC50", "setting": "[1]", "result": "3.26 µM [rising, full curve, poor fit]"}, {"measurement": "AC50", "setting": "[2]", "result": "4.61 µM [falling, partial curve, poor fit]"}]}, {"molecule": "NC(=O)c1ccsc1NC(=O)COC(=O)c1cc(Cl)ccc1O", "values": [{"measurement": "AC50", "setting": "[1]", "result": "5.8 µM [falling, full curve, poor fit]"}]}, {"molecule": "CCCC1CCC(c2ccc(/C(N)=N/O)cc2)CC1", "note": "(configuration not stated)", "values": [{"measurement": "AC50", "setting": "[1]", "result": "3.55 µM [rising, full curve]"}]}, {"molecule": "c1ccc2c(NCCCN3CCOCC3)c3ccccc3nc2c1", "values": [{"measurement": "AC50", "setting": "[1]", "result": "8.91 µM [falling, partial curve]"}]}, {"molecule": "COc1cccc2cc(C(C)=O)c(=O)oc12", "values": [{"measurement": "AC50", "setting": "[1]", "result": "16.4 µM [falling, partial curve]"}]}, {"molecule": "CCN(CC)C(=O)Nc1ccc(Br)cc1", "values": [{"measurement": "AC50", "setting": "[1]", "result": "12.6 µM [rising, single point]"}]}, {"molecule": "CCC(Sc1nncn1C)C(=O)Nc1nnc(-c2ccccc2Cl)s1", "note": "(configuration not stated)", "values": [{"measurement": "AC50", "setting": "[1]", "result": "32.6 µM [rising, partial curve, poor fit]"}]}, {"molecule": "CC(NC(=O)CNC(=S)N(Cc1cccs1)C1CCCC1)c1ccccc1", "note": "(configuration not stated)", "values": [{"measurement": "AC50", "setting": "[1]", "result": "12.6 µM [falling, single point]"}]}, {"molecule": "Cn1ccc(C(=O)OCC(=O)c2ccccc2)n1", "values": [{"measurement": "AC50", "setting": "[1]", "result": "2 µM [rising, partial curve, poor fit]"}]}, {"molecule": "COc1cccc(C(=O)Nc2ncc3c(n2)CC(c2ccc(OC)cc2OC)CC3=O)c1", "note": "(configuration not stated)", "values": [{"measurement": "AC50", "setting": "[1]", "result": "10 µM [falling, partial curve]"}]}, {"molecule": "COc1ccc(CCNC(=O)COC(=O)c2ccc(Br)o2)cc1OC", "values": [{"measurement": "AC50", "setting": "[1]", "result": "10.3 µM [rising, partial curve, poor fit]"}]}, {"molecule": "O=C1C=C(Nc2ccc(O)cc2)C(=O)c2ccccc21", "values": [{"measurement": "AC50", "setting": "[1]", "result": "10 µM [falling, partial curve, poor fit]"}]}, {"molecule": "COc1ccc(CCNC(=O)c2nn(C)cc2Cl)cc1", "values": [{"measurement": "AC50", "setting": "[1]", "result": "23.1 µM [falling, partial curve, poor fit]"}]}, {"molecule": "CCCC[C@@]1(C2CCCC2)Cc2cc(OCC(=O)O)c(Cl)c(Cl)c2C1=O", "values": [{"measurement": "AC50", "setting": "[1]", "result": "29.1 µM [falling, single point]"}]}, {"molecule": "CC(C)(CNC(=O)/C=C/c1ccc(F)cc1)CNC(=O)/C=C/c1ccc(F)cc1", "values": [{"measurement": "AC50", "setting": "[1]", "result": "3.26 µM [falling, partial curve]"}]}, {"molecule": "COc1ccc(OC)c2sc(N(CCCN(C)C)C(=O)CCS(=O)(=O)c3ccccc3)nc12", "values": [{"measurement": "AC50", "setting": "[1]", "result": "13 µM [falling, partial curve]"}, {"measurement": "AC50", "setting": "[2]", "result": "14.6 µM [rising, partial curve, poor fit]"}]}, {"molecule": "CCN(CC)S(=O)(=O)c1ccc(NC2CCCc3ccccc32)nc1", "note": "(configuration not stated)", "values": [{"measurement": "AC50", "setting": "[1]", "result": "32.6 µM [falling, single point]"}]}, {"molecule": "CC1(C)CCCN(C(=O)c2ccc3c(c2NCCO)C(=O)c2ccccc2C3=O)C1", "values": [{"measurement": "AC50", "setting": "[1]", "result": "6.51 µM [falling, partial curve]"}]}, {"molecule": "O=C(NCCN1CCCCC1)c1cccc2c1C(=O)c1ccc(N3CCCC3)cc1S2(=O)=O", "values": [{"measurement": "AC50", "setting": "[1]", "result": "32.6 µM [rising, partial curve, poor fit]"}]}, {"molecule": "O=C(c1ccco1)N1CCN(c2nc3c(F)cc(F)cc3s2)CC1", "values": [{"measurement": "AC50", "setting": "[1]", "result": "35.5 µM [falling, single point]"}]}, {"molecule": "COc1cc(SC)ccc1C(=O)Nc1ccc2c(c1)OCCO2", "values": [{"measurement": "AC50", "setting": "[1]", "result": "35.5 µM [falling, single point]"}]}, {"molecule": "O=C1c2cccc3c(N4CCOCC4)c([N+](=O)[O-])cc(c23)C(=O)N1c1cccc2ccccc12", "values": [{"measurement": "AC50", "setting": "[1]", "result": "29.1 µM [rising, partial curve, poor fit]"}]}, {"molecule": "c1ccc(-n2ncc3c(NCc4ccccn4)ncnc32)cc1", "values": [{"measurement": "AC50", "setting": "[1]", "result": "6.51 µM [rising, single point]"}]}, {"molecule": "COc1cccc(-n2nnnc2SCC(=O)Nc2cccc(NC(C)=O)c2)c1", "values": [{"measurement": "AC50", "setting": "[1]", "result": "12.6 µM [falling, partial curve, poor fit]"}]}, {"molecule": "COc1ccc(CCn2nnnc2CN2CCN(C(=O)c3ccco3)CC2)cc1OC", "values": [{"measurement": "AC50", "setting": "[1]", "result": "3.98 µM [rising, partial curve, poor fit]"}, {"measurement": "AC50", "setting": "[2]", "result": "3.55 µM [falling, single point]"}]}, {"molecule": "CC1CCN(CC(=O)Nc2cc(C(F)(F)F)ccc2Cl)CC1", "values": [{"measurement": "AC50", "setting": "[1]", "result": "29.1 µM [rising, single point]"}]}, {"molecule": "COc1ccc(C(CC(=O)N2CCN(c3ccccc3)CC2)c2c(OC)cc(OC)c3ccc(=O)oc23)cc1", "note": "(configuration not stated)", "values": [{"measurement": "AC50", "setting": "[1]", "result": "6.31 µM [rising, single point]"}]}, {"molecule": "O=C1C2C3c4ccccc4C(c4ccccc43)[C@@H]2C(=O)N1c1nc(-c2ccccc2)cs1", "note": "(some centres not stated)", "values": [{"measurement": "AC50", "setting": "[1]", "result": "32.6 µM [rising, partial curve, poor fit]"}]}]}
